Assay results from article PMC12550048.
These are yes or no findings as the source states them, for the method shown. Binding seen in cells or lysates may run through a third protein. Some entries that bind do so weakly or less than the wild type.

Chains of the proteins cited; added tags and fusions are not shown.
UniProt Q9QY76: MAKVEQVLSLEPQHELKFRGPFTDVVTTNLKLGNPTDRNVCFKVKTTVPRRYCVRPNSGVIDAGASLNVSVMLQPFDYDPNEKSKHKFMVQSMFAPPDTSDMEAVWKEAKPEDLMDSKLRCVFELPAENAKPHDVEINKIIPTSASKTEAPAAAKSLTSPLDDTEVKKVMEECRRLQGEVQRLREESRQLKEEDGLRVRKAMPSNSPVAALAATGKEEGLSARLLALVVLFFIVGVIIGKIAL

Target: T1, PTPIP51 (mouse (endogenous in MEF)) (UniProt Q3UJU9)
T1 sequence: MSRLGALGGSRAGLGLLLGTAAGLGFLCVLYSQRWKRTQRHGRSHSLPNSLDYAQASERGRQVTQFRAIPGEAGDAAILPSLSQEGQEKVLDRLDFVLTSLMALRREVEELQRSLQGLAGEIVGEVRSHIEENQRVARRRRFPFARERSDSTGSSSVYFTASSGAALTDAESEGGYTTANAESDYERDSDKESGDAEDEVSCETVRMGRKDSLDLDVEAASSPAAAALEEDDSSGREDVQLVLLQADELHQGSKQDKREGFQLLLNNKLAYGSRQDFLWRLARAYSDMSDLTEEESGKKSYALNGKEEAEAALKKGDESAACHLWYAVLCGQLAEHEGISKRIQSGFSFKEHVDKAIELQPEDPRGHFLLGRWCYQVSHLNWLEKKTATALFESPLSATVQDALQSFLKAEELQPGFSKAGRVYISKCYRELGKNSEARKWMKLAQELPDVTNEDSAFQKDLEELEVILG
Assay: proximity ligation; Duolink PLA in PFA-fixed, Triton-permeabilised MEF cells with anti-VAPB and anti-PTPIP51 primary antibodies; cells untreated or treated with 20 uM CCCP for 5 min, with or without 100 uM CK666; PLA dots per 100 um^2

binding: binds
Substance: VAP-B (from UniProt Q9QY76 1-243)
